PubChem BioAssay AID686938 – Drosophila RNAi Screening Center, 2013
Test: 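Knock-downs reducing store-operated calcium influx in Drosophila cells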 (primary screen). Cells: Drosophila S2R+ cells. Reagents: long dsRNA against Drosophila genes, about 0.25 µg dsRNA per well, roughly 10,000 cells. Timing: 5 days of knock-down before the calcium assay. Treatment: thapsigargin (SERCA pump blocker) to empty calcium stores; entry signal taken 4 min after adding it. Measurement: 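Per-well fluo-4 fluorescence in two replicates, unnormalised, measured in resting cells and 4 min after store depletion by the SERCA blocker thapsigargin; ratio of the two present in few wells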. Scale: calcium entry signal: higher = stronger calcium signal after store depletion; resting calcium signal: higher = higher resting calcium signal. Units: calcium entry signal in fluorescence units; resting calcium signal in fluorescence units. Call rule: 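Hit if the duplicate-averaged plate z-score for entry over resting signal is under −3; wells with weak total dye signal (Fmax z < −2) or more than 5 off-targets removed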. Calls: active = strongly reduced calcium entry; inactive = no strong reduction.
The deposit covers about 23,000 reagents; shown is a random part of those with a known target gene and a result. In the full data, 75 (0.33%) are marked active. 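Raw plate signals without normalisation; calls rest on plate z-scores that were not deposited; ratio present for only 364 wells.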 A number with no mark means an inactive call. Reagents against one gene are numbered here. Names joined by + are all predicted targets of the reagent. Not given: the dose of the treatment.

Which result is listed for CG14742?
calcium entry signal, replicate 1: 1.97e7; calcium entry signal, replicate 2: 1.82e7; resting calcium signal, replicate 1: 1.14e7; resting calcium signal, replicate 2: 9.57e6

With CG14695, what was measured?
calcium entry signal, replicate 1: 3.48e7; calcium entry signal, replicate 2: 4.05e7; resting calcium signal, replicate 1: 1.81e7; resting calcium signal, replicate 2: 2.10e7

For CG12869, what does the deposit list?
calcium entry signal, replicate 1: 2.49e7; calcium entry signal, replicate 2: 3.68e7; resting calcium signal, replicate 1: 1.29e7; resting calcium signal, replicate 2: 1.64e7

For CG33286, what does the deposit list?
calcium entry signal, replicate 1: 2.99e7; calcium entry signal, replicate 2: 5.09e7; resting calcium signal, replicate 1: 1.54e7; resting calcium signal, replicate 2: 2.22e7

For CG31826, what does the deposit list?
calcium entry signal, replicate 1: 4.52e7; calcium entry signal, replicate 2: 3.20e7; resting calcium signal, replicate 1: 1.93e7; resting calcium signal, replicate 2: 1.45e7

With uif #1, how do the results read?
calcium entry signal, replicate 1: 3.49e7; calcium entry signal, replicate 2: 3.44e7; resting calcium signal, replicate 1: 2.09e7; resting calcium signal, replicate 2: 1.64e7

With uif #2, what was measured?
calcium entry signal, replicate 1: 3.55e7; calcium entry signal, replicate 2: 4.27e7; resting calcium signal, replicate 1: 1.68e7; resting calcium signal, replicate 2: 2.04e7

For cbc, what was measured?
calcium entry signal, replicate 1: 2.37e7; calcium entry signal, replicate 2: 2.66e7; resting calcium signal, replicate 1: 1.04e7; resting calcium signal, replicate 2: 1.20e7

With CG9147, how do the results read?
calcium entry signal, replicate 1: 3.98e7; calcium entry signal, replicate 2: 3.71e7; resting calcium signal, replicate 1: 1.87e7; resting calcium signal, replicate 2: 1.73e7

How did the screen score ND4 (retired record)?
calcium entry signal, replicate 1: 2.50e7; calcium entry signal, replicate 2: 3.54e7; resting calcium signal, replicate 1: 1.40e7; resting calcium signal, replicate 2: 1.68e7

For CG14676, what was measured?
calcium entry signal, replicate 1: 4.53e7; calcium entry signal, replicate 2: 3.84e7; resting calcium signal, replicate 1: 2.29e7; resting calcium signal, replicate 2: 1.84e7

With Ir60d, what does the deposit list?
calcium entry signal, replicate 1: 4.26e7; calcium entry signal, replicate 2: 4.65e7; resting calcium signal, replicate 1: 2.08e7; resting calcium signal, replicate 2: 2.06e7

For Eps-15, how do the results read?
calcium entry signal, replicate 1: 4.45e7; resting calcium signal, replicate 1: 2.23e7

How did the screen score CG10959?
calcium entry signal, replicate 1: 2.53e7; calcium entry signal, replicate 2: 2.34e7; resting calcium signal, replicate 1: 1.11e7; resting calcium signal, replicate 2: 9.89e6

For sr #1, what was measured?
calcium entry signal, replicate 1: 3.31e7; calcium entry signal, replicate 2: 3.11e7; resting calcium signal, replicate 1: 1.63e7; resting calcium signal, replicate 2: 1.53e7

With sr #2, what was measured?
calcium entry signal, replicate 1: 3.73e7; calcium entry signal, replicate 2: 3.65e7; resting calcium signal, replicate 1: 3.93e7; resting calcium signal, replicate 2: 1.71e7

Which result is listed for CG34223?
calcium entry signal, replicate 1: 4.44e7; calcium entry signal, replicate 2: 5.62e7; resting calcium signal, replicate 1: 2.30e7; resting calcium signal, replicate 2: 2.49e7

With Rich, what was measured?
calcium entry signal, replicate 1: 3.33e7; calcium entry signal, replicate 2: 4.32e7; resting calcium signal, replicate 1: 1.62e7; resting calcium signal, replicate 2: 3.00e7

With CG32640 + CG32641, what was measured?
calcium entry signal, replicate 1: 4.20e7; calcium entry signal, replicate 2: 3.70e7; resting calcium signal, replicate 1: 2.42e7; resting calcium signal, replicate 2: 1.67e7

Which result is listed for CG42712 (retired record)?
calcium entry signal, replicate 1: 3.60e7; calcium entry signal, replicate 2: 4.97e7; resting calcium signal, replicate 1: 1.80e7; resting calcium signal, replicate 2: 2.17e7

What did the screen give for cl?
calcium entry signal, replicate 1: 4.36e7; resting calcium signal, replicate 1: 2.40e7

What did the screen give for Vps35?
calcium entry signal, replicate 1: 2.70e7; resting calcium signal, replicate 1: 1.55e7

With stil, how do the results read?
calcium entry signal, replicate 1: 3.57e7; calcium entry signal, replicate 2: 4.90e7; resting calcium signal, replicate 1: 1.55e7; resting calcium signal, replicate 2: 2.09e7

What is on record for CG5880?
calcium entry signal, replicate 1: 4.19e7; calcium entry signal, replicate 2: 4.86e7; resting calcium signal, replicate 1: 1.98e7; resting calcium signal, replicate 2: 2.17e7

Which result is listed for CG6012?
calcium entry signal, replicate 1: 3.56e7; calcium entry signal, replicate 2: 2.30e7; resting calcium signal, replicate 1: 1.65e7; resting calcium signal, replicate 2: 1.15e7

Which result is listed for CG31008?
calcium entry signal, replicate 1: 3.92e7; calcium entry signal, replicate 2: 4.24e7; resting calcium signal, replicate 1: 1.80e7; resting calcium signal, replicate 2: 1.82e7

With CG30158 #1, how do the results read?
calcium entry signal, replicate 1: 1.81e7; calcium entry signal, replicate 2: 2.69e7; resting calcium signal, replicate 1: 9.28e6; resting calcium signal, replicate 2: 1.22e7

What is on record for CG30158 #2?
calcium entry signal, replicate 1: 3.92e7; calcium entry signal, replicate 2: 3.04e7; resting calcium signal, replicate 1: 1.78e7; resting calcium signal, replicate 2: 1.46e7

How did the screen score CG30158 #3?
calcium entry signal, replicate 1: 4.45e7; calcium entry signal, replicate 2: 3.57e7; resting calcium signal, replicate 1: 2.01e7; resting calcium signal, replicate 2: 1.49e7

What is on record for CG30158 #4?
calcium entry signal, replicate 1: 4.75e7; calcium entry signal, replicate 2: 3.31e7; resting calcium signal, replicate 1: 2.01e7; resting calcium signal, replicate 2: 1.52e7

5 of these entries in another layout:
{"target gene": "Vps35", "reagent": 1, "calcium entry signal, replicate 1": 2.70e7, "resting calcium signal, replicate 1": 1.55e7}
{"target gene": "stil", "reagent": 1, "calcium entry signal, replicate 1": 3.57e7, "calcium entry signal, replicate 2": 4.90e7, "resting calcium signal, replicate 1": 1.55e7, "resting calcium signal, replicate 2": 2.09e7}
{"target gene": "CG5880", "reagent": 1, "calcium entry signal, replicate 1": 4.19e7, "calcium entry signal, replicate 2": 4.86e7, "resting calcium signal, replicate 1": 1.98e7, "resting calcium signal, replicate 2": 2.17e7}
{"target gene": "CG6012", "reagent": 1, "calcium entry signal, replicate 1": 3.56e7, "calcium entry signal, replicate 2": 2.30e7, "resting calcium signal, replicate 1": 1.65e7, "resting calcium signal, replicate 2": 1.15e7}
{"target gene": "CG31008", "reagent": 1, "calcium entry signal, replicate 1": 3.92e7, "calcium entry signal, replicate 2": 4.24e7, "resting calcium signal, replicate 1": 1.80e7, "resting calcium signal, replicate 2": 1.82e7}
